Experimental data from article doi:10.1101/2024.03.18.584613.
Where two headings read alike, the source gives them in different places. Results are given in words; binding and its absence hold for the method and conditions named. In cells and extracts the contact can be indirect. These calls come from enrichment with a bait or labelling near it, and not all partners need be listed. Blank lines part the entries; values can stand above or below the molecule they belong to.

Protein sequences, listed by entry. Tags and fused reporters are not part of them. Lines headed by an entry give the natural chain unless they say otherwise; changes in a name come on top.
UniProt Q3KP44: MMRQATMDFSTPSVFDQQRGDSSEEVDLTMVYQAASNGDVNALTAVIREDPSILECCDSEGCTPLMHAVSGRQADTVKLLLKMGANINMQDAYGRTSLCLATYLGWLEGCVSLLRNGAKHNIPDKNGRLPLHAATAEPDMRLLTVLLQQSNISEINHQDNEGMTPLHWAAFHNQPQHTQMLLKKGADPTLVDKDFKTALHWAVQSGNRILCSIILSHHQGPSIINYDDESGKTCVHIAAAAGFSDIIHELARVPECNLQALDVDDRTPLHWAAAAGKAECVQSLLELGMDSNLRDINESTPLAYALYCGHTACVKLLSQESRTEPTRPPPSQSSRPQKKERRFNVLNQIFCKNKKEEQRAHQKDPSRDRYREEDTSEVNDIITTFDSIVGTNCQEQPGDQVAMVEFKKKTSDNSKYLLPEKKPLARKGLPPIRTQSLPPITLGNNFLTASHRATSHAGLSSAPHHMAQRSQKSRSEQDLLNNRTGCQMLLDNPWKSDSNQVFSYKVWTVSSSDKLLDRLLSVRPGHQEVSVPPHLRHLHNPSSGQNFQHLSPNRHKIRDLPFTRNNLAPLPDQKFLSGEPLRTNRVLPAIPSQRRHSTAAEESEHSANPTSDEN
UniProt P63104: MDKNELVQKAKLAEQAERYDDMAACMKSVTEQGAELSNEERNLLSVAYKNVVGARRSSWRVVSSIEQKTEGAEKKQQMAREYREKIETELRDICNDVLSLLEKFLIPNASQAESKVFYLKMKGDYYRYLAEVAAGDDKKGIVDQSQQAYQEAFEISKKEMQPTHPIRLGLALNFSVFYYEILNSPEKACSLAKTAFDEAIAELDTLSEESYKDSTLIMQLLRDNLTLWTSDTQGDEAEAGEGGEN
UniProt Q9P0J0: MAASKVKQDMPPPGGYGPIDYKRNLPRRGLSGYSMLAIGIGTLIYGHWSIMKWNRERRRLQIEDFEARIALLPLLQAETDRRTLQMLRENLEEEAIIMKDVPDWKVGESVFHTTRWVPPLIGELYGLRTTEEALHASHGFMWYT
UniProt O75947: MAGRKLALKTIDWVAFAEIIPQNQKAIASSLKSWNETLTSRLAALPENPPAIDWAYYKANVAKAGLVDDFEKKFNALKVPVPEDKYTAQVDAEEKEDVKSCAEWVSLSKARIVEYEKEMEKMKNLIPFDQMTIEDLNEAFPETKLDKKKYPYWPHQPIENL
UniProt O95816: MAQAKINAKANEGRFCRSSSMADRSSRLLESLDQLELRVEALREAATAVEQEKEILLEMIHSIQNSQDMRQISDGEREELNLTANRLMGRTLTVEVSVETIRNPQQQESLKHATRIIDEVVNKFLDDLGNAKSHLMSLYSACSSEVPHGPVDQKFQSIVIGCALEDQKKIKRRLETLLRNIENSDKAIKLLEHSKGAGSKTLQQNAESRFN
UniProt O75964: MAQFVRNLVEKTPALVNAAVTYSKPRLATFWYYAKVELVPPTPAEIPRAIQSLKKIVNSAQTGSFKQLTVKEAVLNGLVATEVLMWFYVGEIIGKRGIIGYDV
UniProt P31946: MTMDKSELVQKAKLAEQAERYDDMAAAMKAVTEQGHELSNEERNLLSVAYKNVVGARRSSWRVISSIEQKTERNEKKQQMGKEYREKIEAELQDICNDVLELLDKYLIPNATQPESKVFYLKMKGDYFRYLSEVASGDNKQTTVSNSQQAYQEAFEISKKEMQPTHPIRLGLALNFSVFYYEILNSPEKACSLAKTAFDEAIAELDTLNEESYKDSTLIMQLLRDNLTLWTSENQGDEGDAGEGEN
UniProt Q86VP6: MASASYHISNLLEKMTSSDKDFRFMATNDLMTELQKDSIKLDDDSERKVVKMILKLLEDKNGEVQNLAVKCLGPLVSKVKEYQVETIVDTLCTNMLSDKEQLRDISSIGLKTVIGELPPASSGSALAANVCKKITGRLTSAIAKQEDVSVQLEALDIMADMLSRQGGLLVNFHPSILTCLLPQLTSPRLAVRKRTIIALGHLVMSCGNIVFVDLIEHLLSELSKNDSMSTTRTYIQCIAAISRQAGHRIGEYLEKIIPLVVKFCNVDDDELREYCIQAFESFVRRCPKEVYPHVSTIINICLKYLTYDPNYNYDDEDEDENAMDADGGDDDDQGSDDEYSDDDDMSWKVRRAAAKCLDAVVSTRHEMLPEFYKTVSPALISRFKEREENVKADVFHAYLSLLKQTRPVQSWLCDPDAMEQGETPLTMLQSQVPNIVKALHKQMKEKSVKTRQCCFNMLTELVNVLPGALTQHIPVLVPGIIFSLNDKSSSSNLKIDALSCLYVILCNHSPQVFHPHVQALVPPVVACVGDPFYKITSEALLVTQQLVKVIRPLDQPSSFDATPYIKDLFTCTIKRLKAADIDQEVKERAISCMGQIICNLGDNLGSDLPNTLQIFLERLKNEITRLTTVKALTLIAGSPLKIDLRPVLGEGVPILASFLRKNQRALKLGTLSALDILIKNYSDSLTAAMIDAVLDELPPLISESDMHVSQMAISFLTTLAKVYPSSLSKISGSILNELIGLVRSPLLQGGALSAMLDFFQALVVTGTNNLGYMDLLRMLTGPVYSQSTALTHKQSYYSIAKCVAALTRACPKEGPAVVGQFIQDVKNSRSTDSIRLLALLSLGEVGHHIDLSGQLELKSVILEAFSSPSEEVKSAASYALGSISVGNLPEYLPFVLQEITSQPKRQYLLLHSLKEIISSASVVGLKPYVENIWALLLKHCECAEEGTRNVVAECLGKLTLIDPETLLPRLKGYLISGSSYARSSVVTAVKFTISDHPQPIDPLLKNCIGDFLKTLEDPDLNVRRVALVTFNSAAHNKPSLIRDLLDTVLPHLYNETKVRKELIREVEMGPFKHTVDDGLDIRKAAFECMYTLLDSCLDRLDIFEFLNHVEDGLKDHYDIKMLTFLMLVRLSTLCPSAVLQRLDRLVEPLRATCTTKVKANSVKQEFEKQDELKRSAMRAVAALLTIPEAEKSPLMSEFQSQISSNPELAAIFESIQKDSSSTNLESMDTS
UniProt O95168: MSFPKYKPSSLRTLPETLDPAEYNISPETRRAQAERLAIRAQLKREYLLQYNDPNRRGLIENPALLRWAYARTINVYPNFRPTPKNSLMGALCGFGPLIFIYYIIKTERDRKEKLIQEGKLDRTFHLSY
UniProt P62258: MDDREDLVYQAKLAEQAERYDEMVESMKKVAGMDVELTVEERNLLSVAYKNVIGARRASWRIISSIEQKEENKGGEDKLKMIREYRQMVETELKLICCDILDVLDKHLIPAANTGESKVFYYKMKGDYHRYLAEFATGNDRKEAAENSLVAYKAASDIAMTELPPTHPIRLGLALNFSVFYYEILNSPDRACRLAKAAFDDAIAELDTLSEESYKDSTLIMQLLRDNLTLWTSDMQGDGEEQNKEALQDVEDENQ
UniProt P21796: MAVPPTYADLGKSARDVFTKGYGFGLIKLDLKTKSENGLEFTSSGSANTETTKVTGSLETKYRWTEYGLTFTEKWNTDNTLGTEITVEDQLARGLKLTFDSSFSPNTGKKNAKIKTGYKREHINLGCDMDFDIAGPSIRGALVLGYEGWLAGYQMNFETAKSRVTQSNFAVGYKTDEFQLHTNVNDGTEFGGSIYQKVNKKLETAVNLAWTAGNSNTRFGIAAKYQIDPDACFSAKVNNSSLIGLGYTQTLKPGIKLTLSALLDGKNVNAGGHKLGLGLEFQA
UniProt O00483: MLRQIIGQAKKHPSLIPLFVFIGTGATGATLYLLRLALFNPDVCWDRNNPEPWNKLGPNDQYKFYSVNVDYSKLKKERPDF
UniProt P15924: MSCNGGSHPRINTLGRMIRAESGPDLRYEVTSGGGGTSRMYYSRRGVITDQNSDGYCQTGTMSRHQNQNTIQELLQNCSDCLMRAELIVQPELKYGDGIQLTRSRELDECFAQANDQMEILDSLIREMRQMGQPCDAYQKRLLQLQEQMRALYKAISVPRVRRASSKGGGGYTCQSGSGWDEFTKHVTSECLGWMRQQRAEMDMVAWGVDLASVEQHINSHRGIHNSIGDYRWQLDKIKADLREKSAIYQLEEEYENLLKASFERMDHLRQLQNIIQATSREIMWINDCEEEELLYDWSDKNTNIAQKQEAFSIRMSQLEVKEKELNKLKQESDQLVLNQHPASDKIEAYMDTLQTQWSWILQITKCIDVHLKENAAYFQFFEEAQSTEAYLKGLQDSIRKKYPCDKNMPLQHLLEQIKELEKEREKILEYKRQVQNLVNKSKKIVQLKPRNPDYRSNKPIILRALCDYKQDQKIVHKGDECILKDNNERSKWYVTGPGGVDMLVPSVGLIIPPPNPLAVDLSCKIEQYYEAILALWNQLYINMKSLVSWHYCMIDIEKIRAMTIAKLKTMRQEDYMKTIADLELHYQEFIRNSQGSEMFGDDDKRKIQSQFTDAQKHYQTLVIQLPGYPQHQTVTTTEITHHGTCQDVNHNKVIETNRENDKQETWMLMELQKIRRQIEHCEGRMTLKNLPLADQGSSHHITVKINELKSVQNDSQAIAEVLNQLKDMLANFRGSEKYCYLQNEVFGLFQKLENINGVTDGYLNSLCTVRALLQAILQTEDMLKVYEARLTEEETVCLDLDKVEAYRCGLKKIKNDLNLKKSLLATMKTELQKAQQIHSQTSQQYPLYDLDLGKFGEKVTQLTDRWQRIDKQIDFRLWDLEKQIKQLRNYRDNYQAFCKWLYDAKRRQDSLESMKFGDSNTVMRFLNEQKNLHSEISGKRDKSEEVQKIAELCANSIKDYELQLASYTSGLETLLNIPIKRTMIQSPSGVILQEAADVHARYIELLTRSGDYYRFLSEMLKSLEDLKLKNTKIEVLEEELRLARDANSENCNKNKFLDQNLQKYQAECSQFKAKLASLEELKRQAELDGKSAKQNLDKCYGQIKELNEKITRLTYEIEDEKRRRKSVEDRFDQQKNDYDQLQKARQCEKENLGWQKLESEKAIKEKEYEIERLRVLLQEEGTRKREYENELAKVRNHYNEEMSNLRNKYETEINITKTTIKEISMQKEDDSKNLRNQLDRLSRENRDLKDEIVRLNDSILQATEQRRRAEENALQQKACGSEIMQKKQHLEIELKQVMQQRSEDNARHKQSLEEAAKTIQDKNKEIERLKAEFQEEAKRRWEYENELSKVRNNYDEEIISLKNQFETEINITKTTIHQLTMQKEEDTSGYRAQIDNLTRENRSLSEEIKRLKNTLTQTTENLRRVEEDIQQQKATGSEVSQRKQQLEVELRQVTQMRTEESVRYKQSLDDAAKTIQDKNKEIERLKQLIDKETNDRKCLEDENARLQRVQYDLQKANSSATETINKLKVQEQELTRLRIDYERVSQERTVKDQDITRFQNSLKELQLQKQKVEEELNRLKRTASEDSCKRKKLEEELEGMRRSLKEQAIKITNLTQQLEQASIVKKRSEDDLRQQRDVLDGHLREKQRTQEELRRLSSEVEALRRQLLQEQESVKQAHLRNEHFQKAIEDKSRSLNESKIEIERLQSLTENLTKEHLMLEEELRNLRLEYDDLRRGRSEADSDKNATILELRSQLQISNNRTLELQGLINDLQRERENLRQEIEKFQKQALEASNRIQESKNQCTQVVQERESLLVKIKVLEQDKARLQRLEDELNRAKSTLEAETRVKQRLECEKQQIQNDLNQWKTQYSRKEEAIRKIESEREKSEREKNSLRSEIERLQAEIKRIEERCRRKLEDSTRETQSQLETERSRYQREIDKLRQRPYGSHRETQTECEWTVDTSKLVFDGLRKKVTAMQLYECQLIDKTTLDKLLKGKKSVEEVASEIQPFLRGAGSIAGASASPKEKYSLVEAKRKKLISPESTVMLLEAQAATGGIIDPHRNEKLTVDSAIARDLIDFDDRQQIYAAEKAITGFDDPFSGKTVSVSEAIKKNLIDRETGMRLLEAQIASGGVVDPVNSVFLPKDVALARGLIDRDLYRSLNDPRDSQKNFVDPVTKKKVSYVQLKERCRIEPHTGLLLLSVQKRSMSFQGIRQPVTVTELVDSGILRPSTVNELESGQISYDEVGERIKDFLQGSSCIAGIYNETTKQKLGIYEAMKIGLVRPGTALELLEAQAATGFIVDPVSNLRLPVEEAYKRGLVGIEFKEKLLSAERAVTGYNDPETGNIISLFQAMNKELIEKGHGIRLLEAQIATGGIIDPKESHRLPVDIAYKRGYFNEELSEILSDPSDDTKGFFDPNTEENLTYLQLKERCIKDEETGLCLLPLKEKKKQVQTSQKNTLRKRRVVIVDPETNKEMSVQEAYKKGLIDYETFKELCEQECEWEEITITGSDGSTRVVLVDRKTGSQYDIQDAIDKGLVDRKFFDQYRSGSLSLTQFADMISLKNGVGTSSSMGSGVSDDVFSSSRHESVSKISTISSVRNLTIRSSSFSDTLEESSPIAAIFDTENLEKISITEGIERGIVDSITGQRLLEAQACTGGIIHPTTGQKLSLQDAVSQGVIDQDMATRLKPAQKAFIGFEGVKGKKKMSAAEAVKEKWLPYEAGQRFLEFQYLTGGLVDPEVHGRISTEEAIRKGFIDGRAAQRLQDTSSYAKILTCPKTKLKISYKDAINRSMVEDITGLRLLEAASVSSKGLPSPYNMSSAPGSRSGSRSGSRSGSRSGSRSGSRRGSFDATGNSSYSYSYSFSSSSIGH

Assays:
Test in all cases: affinity purification with mass spectrometry
[1] = target: ANKRD55-MYC-FLAG (full-length ANKRD55 isoform 201 with C-terminal MYC-FLAG tags) (human) (UniProt Q3KP44)
[2] = target: ANKRD55-MYC-FLAG (full-length ANKRD55 isoform 201 with C-terminal MYC-FLAG tags) (human) (UniProt Q3KP44); remark: listed apart in the source
[3] = target: ANKRD55-MYC-FLAG (full-length ANKRD55 isoform 201 with C-terminal MYC-FLAG tags) (human) (UniProt Q3KP44); remark: listed apart in the source
[4] = target: ANKRD55-MYC-FLAG (full-length ANKRD55 isoform 201 with C-terminal MYC-FLAG tags) (human) (UniProt Q3KP44); remark: listed apart in the source
[5] = target: ANKRD55-MYC-FLAG (full-length ANKRD55 isoform 201 with C-terminal MYC-FLAG tags) (human) (UniProt Q3KP44); remark: listed apart in the source
[6] = target: ANKRD55-MYC-FLAG (full-length ANKRD55 isoform 201 with C-terminal MYC-FLAG tags) (human) (UniProt Q3KP44); remark: listed apart in the source
[7] = target: ANKRD55-MYC-FLAG (full-length ANKRD55 isoform 201 with C-terminal MYC-FLAG tags) (human) (UniProt Q3KP44); remark: listed apart in the source
[8] = target: ANKRD55-MYC-FLAG (full-length ANKRD55 isoform 201 with C-terminal MYC-FLAG tags) (human) (UniProt Q3KP44); remark: listed apart in the source

Molecule: 14-3-3ζ/δ (from UniProt P63104 1-245)
binding [1]: binds
binding [2]: binds

Molecule: NDUFA13 (from UniProt Q9P0J0 1-144)
binding [1]: binds

Molecule: ATP5PD, a subunit of mitochondrial ATP synthase (from UniProt O75947 1-161)
binding [3]: binds
binding [4]: binds

Molecule: BAG Cochaperone 2 (from UniProt O95816 1-211)
binding [1]: binds
binding [4]: binds
binding [2]: binds

Molecule: SDHA (from UniProt P31040 43-664)
binding [1]: binds

Molecule: ATP5MG (from UniProt O75964 1-103)
binding [1]: binds

Molecule: 14-3-3β/α (from UniProt P31946 1-246)
binding [5]: binds
binding [1]: binds
binding [6]: binds
binding [7]: binds

B2: 14-3-3γ (protein, UniProt P61981 1-247)
chain: MVDREQLVQKARLAEQAERYDDMAAAMKNVTELNEPLSNEERNLLSVAYKNVVGARRSSWRVISSIEQKTSADGNEKKIEMVRAYREKIEKELEAVCQDVLSLLDNYLIKNCSETQYESKVFYLKMKGDYYRYLAEVATGEKRATVVESSEKAYSEAHEISKEHMQPTHPIRLGLALNYSVFYYEIQNAPEQACHLAKTAFDDAIAELDTLNEDSYKDSTLIMQLLRDNLTLWTSDQQDDDGGEGNN
binding [4]: binds
binding [8]: binds
binding [2]: binds

B4: CAT (protein, UniProt P04040 1-527)
chain: MADSRDPASDQMQHWKEQRAAQKADVLTTGAGNPVGDKLNVITVGPRGPLLVQDVVFTDEMAHFDRERIPERVVHAKGAGAFGYFEVTHDITKYSKAKVFEHIGKKTPIAVRFSTVAGESGSADTVRDPRGFAVKFYTEDGNWDLVGNNTPIFFIRDPILFPSFIHSQKRNPQTHLKDPDMVWDFWSLRPESLHQVSFLFSDRGIPDGHRHMNGYGSHTFKLVNANGEAVYCKFHYKTDQGIKNLSVEDAARLSQEDPDYGIRDLFNAIATGKYPSWTFYIQVMTFNQAETFPFNPFDLTKVWPHKDYPLIPVGKLVLNRNPVNYFAEVEQIAFDPSNMPPGIEASPDKMLQGRLFAYPDTHRHRLGPNYLHIPVNCPYRARVANYQRDGPMCMQDNQGGAPNYYPNSFGAPEQQPSALEHSIQYSGEVRRFNTANDDNVTQVRAFYVNVLNEEQRKRLCENIAGHLKDAQIFIQKKAVKNFTEVHPDYGSHIQALLDKYNAEKPKNAIHTFVQSGSHLAAREKANL
binding [8]: binds

B6: 14-3-3η (protein, UniProt Q04917 1-246)
chain: MGDREQLLQRARLAEQAERYDDMASAMKAVTELNEPLSNEDRNLLSVAYKNVVGARRSSWRVISSIEQKTMADGNEKKLEKVKAYREKIEKELETVCNDVLSLLDKFLIKNCNDFQYESKVFYLKMKGDYYRYLAEVASGEKKNSVVEASEAAYKEAFEISKEQMQPTHPIRLGLALNFSVFYYEIQNAPEQACLLAKQAFDDAIAELDTLNEDSYKDSTLIMQLLRDNLTLWTSDQQDEEAGEGN
binding [5]: binds
binding [8]: binds
binding [6]: binds
binding [7]: binds

Other lines, results leading:

binding [3]: binds
binding [1]: binds
Molecule: cullin-associated and neddylation-dissociated protein 1 (from UniProt Q86VP6 1-1230)

binding [1]: binds
Molecule: PRKDC (from UniProt P78527 1-4128)

binding [1]: binds
Molecule: NDUFB4 (from UniProt O95168 1-129)

binding [1]: binds
Molecule: PARP1 (from UniProt P09874 1-1014)

binding [1]: binds
binding [4]: binds
binding [2]: binds
Molecule: 14-3-3ε (from UniProt P62258 1-255)

binding [1]: binds
Molecule: VDAC1 (from UniProt P21796 1-283)

binding [1]: binds
Molecule: NDUFA4 (from UniProt O00483 1-81)

binding [1]: binds
Molecule: XRCC6 (from UniProt P12956 1-609)

binding [1]: binds
Molecule: XRCC5 (from UniProt P13010 1-732)

binding [1]: binds
Molecule: DSP (from UniProt P15924 1-2871)

binding [8]: binds
B1: ATP5PB (protein, UniProt P24539 43-256)
chain: PVPPLPEYGGKVRYGLIPEEFFQFLYPKTGVTGPYVLGTGLILYALSKEIYVISAETFTALSVLGVMVYGIKKYGPFVADFADKLNEQKLAQLEEAKQASIQHIQNAIDTEKSQQALVQKRHYLFDVQRNNIAMALEVTYRERLYRVYKEVKNRLDYHISVQNMMRRKEQEHMINWVEKHVVQSISTQQEKETIAKCIADLKLLAKKAQAQPVM

binding [5]: binds
binding [8]: binds
binding [6]: binds
binding [7]: binds
B3: 14-3-3θ (protein, UniProt P27348 1-245)
chain: MEKTELIQKAKLAEQAERYDDMATCMKAVTEQGAELSNEERNLLSVAYKNVVGGRRSAWRVISSIEQKTDTSDKKLQLIKDYREKVESELRSICTTVLELLDKYLIANATNPESKVFYLKMKGDYFRYLAEVACGDDRKQTIDNSQGAYQEAFDISKKEMQPTHPIRLGLALNFSVFYYEILNNPELACTLAKTAFDEAIAELDTLNEDSYKDSTLIMQLLRDNLTLWTSDSAGEECDAAEGAEN

binding [4]: binds
binding [8]: binds
B5: SLC25A22, a glutamate carrier (protein, UniProt Q9H936 1-323)
chain: MADKQISLPAKLINGGIAGLIGVTCVFPIDLAKTRLQNQQNGQRVYTSMSDCLIKTVRSEGYFGMYRGAAVNLTLVTPEKAIKLAANDFFRHQLSKDGQKLTLLKEMLAGCGAGTCQVIVTTPMEMLKIQLQDAGRIAAQRKILAAQGQLSAQGGAQPSVEAPAAPRPTATQLTRDLLRSRGIAGLYKGLGATLLRDVPFSVVYFPLFANLNQLGRPASEEKSPFYVSFLAGCVAGSAAAVAVNPCDVVKTRLQSLQRGVNEDTYSGILDCARKILRHEGPSAFLKGAYCRALVIAPLFGIAQVVYFLGIAESLLGLLQDPQA
